# According to patent publication US6428985 (REGENTS OF THE UNIVERSITY OF MICHIGAN, dated 2002):
# Target: T1, mIL-10R1 on Ba/F3-mIL-10R1 cells (mouse pro-B cell line stably transfected with mIL-10R1) (murine) (UniProt Q61727)
# T1 sequence (looked up): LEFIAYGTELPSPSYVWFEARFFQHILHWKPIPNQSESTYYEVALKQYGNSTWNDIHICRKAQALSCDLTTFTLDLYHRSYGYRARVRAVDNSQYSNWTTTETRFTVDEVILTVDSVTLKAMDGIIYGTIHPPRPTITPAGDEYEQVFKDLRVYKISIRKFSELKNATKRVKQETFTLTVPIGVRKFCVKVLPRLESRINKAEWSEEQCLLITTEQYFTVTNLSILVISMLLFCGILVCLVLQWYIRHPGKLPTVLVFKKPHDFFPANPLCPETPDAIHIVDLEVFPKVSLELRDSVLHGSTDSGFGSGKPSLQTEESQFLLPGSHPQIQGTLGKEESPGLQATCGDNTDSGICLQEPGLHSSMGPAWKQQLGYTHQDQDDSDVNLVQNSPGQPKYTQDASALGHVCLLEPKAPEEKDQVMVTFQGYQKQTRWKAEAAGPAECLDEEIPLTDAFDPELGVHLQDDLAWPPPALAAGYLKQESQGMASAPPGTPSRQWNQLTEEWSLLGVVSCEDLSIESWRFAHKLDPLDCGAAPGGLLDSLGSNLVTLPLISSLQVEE
# Experiment: flow cytometry on Ba/F3-mIL-10R1 cells
row,Substance,binding
1,vIL-10 with amino terminal FLAG tag (pFLAGCMV-1 construct) (ligand),binds
2,vIL-10 with carboxyl terminal myc-his tag (ligand),binds

# Results are given in words; binding and its absence hold for the method and conditions named. Binding can be weak; no strength is given.
